{"source": "patent US20040096941A1", "about": "(priority 2002, published 2004)", "assay": "peptide synthesis", "details": "late stage modification step"}
{"substance": "Fmoc-Tyr(SO3H)-Ile-Tyr(SO3H)-Thr-Lys(^εN-(Ahx)2)", "values": [{"measurement": "step yield", "result": 70, "unit": "%"}]}
